The same purity stands for every peptide and may come from a single statement. Non-standard residues stand in square brackets, D forms with d. *: point of attachment. Propanoyl(3-SS-DM1) = COc1cc2cc(c1Cl)N(C)C(=O)C[C@H](OC(=O)[C@H](C)N(C)C(=O)CCSSCCC(=O)*)[C@]1(C)O[C@H]1[C@H](C)[C@@H]1C[C@@](O)(NC(=O)O1)[C@H](OC)/C=C/C=C(\C)C2; DOTA = O=C(O)CN1CCN(CC(=O)O)CCN(CC(=O)*)CCN(CC(=O)O)CC1; EuK = O=C(O)CC[C@H](NC(=O)N[C@@H](CCCCN*)C(=O)O)C(=O)O; Sta = CC(C)C[C@H](N)[C@@H](O)CC(=O)O; Ahx = NCCCCCC(=O)O
Assay: general procedure: Fmoc solid-phase peptide synthesis; HBTU; PyBOP
[1] = whole synthesis, scale 0.1 mmol

## EuK(Ahx-Sta-Phe-Asp-Lys(C(O)-(CH2)2-S-S-Py)-DOTA)
Late stage modification step
  final LC-MS purity: purity > 99%
Late stage modification step, on 1
  step yield: 73%

## EuK(Ahx-Sta-Phe-Asp-Lys(C(O)-(CH2)2-SH)-DOTA)
Whole synthesis, scale of the general procedure 0.1 mmol
  final LC-MS purity: purity > 99%
[1]
  isolated mass: 32.1 mg
  isolated yield: 22%

## {DOTA}-K(Propanoyl(3-SS-DM1))DF[Sta][Ahx]-EuK (SMILES COc1cc2cc(c1Cl)N(C)C(=O)C[C@H](OC(=O)[C@H](C)N(C)C(=O)CCSSCCC(=O)NCCCC[C@H](NC(=O)CN1CCN(CC(=O)O)CCN(CC(=O)O)CCN(CC(=O)O)CC1)C(=O)N[C@@H](CC(=O)O)C(=O)N[C@@H](Cc1ccccc1)C(=O)N[C@@H](CC(C)C)[C@@H](O)CC(=O)NCCCCCC(=O)NCCCC[C@H](NC(=O)N[C@@H](CCC(=O)O)C(=O)O)C(=O)O)[C@]1(C)O[C@H]1[C@H](C)[C@@H]1C[C@@](O)(NC(=O)O1)[C@H](OC)/C=C/C=C(\C)C2)
Conjugation step
  final LC-MS purity: purity > 99%
Conjugation step, on 2
  conjugation yield: 66%
Conjugation step, over the last two steps
  conjugation yield: 48%
Whole synthesis, global chemical yield, scale of the general procedure 0.1 mmol
  isolated yield: 11%

From PMC10458530 (Pharmaceuticals, 2023)
